The text below walks through data of US20050085420A1, “Method of modulating apoptosis and compositions thereof” (priority 2003, published 2005).

Protein sequences, listed by entry. Tags and fused reporters are not part of them. Residues count along the entry.
UniProt P70444, residues 60-195: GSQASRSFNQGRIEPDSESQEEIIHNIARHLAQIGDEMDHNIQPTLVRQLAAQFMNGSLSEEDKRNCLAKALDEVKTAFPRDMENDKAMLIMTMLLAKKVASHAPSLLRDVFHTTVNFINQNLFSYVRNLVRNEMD

The target of test [1] is T1, N-terminal HA-tagged VDAC2 (murine, UniProt Q60930 1-295).
T1 construct: also called HA-VDAC2; hemagglutinin (HA)-tagged version of VDAC2; not shown: N-terminal HA tag
T1 sequence (looked up): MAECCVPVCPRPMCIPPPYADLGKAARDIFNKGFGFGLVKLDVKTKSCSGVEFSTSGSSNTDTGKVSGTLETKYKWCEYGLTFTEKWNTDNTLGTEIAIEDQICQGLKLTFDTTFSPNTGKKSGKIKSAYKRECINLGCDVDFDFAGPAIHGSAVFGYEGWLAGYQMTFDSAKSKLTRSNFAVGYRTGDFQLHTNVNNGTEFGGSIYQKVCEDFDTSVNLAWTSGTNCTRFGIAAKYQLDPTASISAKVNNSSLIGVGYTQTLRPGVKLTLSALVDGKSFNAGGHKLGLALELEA
Put plainly: anti-HA immunoprecipitation, immunoblot (FIG. 9 legend).

The target of test [2] is T1, N-terminal HA-tagged VDAC2. Put plainly: anti-HA immunoprecipitation in 1% CHAPS from vdac1 -/-, vdac3 -/- fibroblast mitochondria, anti-BID immunoblot.

Results are given in words; binding and its absence hold for the method and conditions named. Some binding calls cover weakened binding; strength is not graded here. Where a sequence is shown, tags or fusion partners need not be part of it.

As for “tBID, wild-type (p15 tBID, the activated form of BID) (from UniProt P70444 60-195)”, the binding result in test [1] and in test [2] was “binds” each time.
